Experimental data published in paper doi:10.1101/2025.11.26.690680.
These are yes or no findings as the source states them, for the method shown. In cells and extracts the contact can be indirect. A result given as binding can be weak or reduced; the word gives no strength.

By UniProt entry, the sequences of proteins in these tests, tags left out. Where a name states a change or a piece, a line headed by the entry shows the natural chain unless it says otherwise.
UniProt Q9H6L5: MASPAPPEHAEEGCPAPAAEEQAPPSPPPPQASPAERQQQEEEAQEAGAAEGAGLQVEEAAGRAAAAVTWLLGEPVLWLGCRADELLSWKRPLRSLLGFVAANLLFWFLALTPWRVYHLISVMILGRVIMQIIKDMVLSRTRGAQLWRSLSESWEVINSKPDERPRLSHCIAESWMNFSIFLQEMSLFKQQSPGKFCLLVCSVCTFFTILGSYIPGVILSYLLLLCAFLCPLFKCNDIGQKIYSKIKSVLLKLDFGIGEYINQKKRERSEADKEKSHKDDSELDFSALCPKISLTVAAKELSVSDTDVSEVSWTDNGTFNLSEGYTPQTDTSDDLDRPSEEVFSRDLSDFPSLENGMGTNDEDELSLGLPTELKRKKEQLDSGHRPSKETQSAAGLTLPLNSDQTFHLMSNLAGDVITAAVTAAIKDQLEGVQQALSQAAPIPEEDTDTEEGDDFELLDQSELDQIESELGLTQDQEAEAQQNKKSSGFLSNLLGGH
UniProt O14983: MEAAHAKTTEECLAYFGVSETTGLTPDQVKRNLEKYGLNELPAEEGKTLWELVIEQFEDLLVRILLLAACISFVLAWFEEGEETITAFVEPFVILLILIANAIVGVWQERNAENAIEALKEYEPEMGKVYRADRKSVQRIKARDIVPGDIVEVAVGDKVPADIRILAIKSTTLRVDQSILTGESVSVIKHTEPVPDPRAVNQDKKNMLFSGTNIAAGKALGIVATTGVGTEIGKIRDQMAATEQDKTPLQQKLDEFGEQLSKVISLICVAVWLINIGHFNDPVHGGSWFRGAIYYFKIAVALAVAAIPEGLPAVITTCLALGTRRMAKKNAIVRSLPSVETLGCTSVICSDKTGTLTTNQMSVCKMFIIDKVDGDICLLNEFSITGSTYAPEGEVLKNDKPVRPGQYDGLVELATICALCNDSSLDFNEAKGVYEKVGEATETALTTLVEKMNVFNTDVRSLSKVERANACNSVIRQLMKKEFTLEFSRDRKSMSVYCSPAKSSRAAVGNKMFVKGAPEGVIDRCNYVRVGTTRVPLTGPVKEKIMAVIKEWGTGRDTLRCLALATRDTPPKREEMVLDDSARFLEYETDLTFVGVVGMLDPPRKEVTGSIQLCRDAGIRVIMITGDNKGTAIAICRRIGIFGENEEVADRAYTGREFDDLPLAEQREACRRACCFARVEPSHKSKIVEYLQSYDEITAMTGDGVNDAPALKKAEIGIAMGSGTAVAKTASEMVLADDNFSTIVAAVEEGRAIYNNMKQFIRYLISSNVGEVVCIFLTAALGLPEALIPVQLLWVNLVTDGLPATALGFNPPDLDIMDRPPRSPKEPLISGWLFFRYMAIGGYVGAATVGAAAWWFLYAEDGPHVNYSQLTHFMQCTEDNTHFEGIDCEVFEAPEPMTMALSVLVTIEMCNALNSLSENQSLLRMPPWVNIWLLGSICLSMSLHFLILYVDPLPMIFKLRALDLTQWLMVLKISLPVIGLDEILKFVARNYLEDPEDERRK

Biological target: FAM134B (endogenous, human iPS cell-derived myocytes) (human (endogenous in hiPSC-MCs)) (UniProt Q9H6L5)
Experiment: co-IP

sarcoplasmic/endoplasmic reticulum calcium ATPase 1 (SERCA1), endogenous, human iPS cell-derived myocytes (from UniProt O14983 1-1001)
binding: binds
